Read-outs that look alike come from different tables or passages of the source. At least one compound was matched to its structure with a doubt left. Marks after values point to notes of the source that are not given here.
What was measured:
[1] = tested on: Influenza A/California/04/2009 (pndH1N1) virus; type: in vivo, BALB/c mice
[2] = tested on: Influenza A/Victoria/3/75 (H3N2) virus; type: in vivo, BALB/c mice
[3] = tested on: Influenza A/Vietnam/1203/2004 (H5N1) virus; design: species or system BALB/c mice; details: mouse, in vivo
influenza A virus = tested on: influenza A virus; design: species or system mice; details: mouse, in vivo
influenza A = tested on: influenza A; design: species or system mice; details: mouse, in vivo
[4] = tested on: influenza A/Wisconsin/67/2005 (H3N2) challenge strain virus; type: in vivo, humans (healthy volunteers)
[5] = tested on: influenza A/Wisconsin/67/2005 (H3N2) challenge strain virus; design: species or system humans (healthy volunteers); details: in vivo
[6] = tested on: influenza A/Wisconsin/67/2005 (H3N2) challenge strain virus; design: species or system humans (healthy volunteers); details: in vivo; remark: listed apart in the source
[7] = tested on: influenza A/Wisconsin/67/2005 (H3N2) challenge strain virus; type: in vivo, humans (healthy volunteers); details: 1200/600 mg dose group
[8] = 3 mg/kg p.o. twice a day for 10 days starting 2 hours prior to virus exposure
[9] = 10 mg/kg p.o. twice a day for 10 days starting 2 hours prior to virus exposure

O=C(O)[C@H]1C2CCC(CC2)C1Nc1nc(-c2c[nH]c3ncc(F)cc23)ncc1F (some centres unmarked) [Compound (1)]
Survivors/Total ([1]; 1 mg/kg p.o. twice a day for 10 days starting 2 hours prior to virus exposure): 10/10***
Survivors/Total [1, 8]: 9/9***
Survivors/Total [1, 9]: 10/10***
Survivors/Total [2, 8]: 10/10***
Survivors/Total [2, 9]: 10/10***
protection [3]: complete protection
protection (influenza A virus): partial protection
survival (influenza A virus): complete survival
reduction in lung viral titers versus oseltamivir- and vehicle-administered animals (influenza A): robust, statistically significant reductions
peak shedding versus pooled placebo ([4]; 1200/600 mg dose group, 400 mg dose group and pooled dose groups): significant reductions
AUC viral shedding versus pooled placebo ([4]; 1200/600 mg dose group, P=0.010, Wilcoxon rank-sum test): statistically significant reduction
dose response trend in median AUC viral shedding in nasal swabs (Days 1 through 7) ([4]; FA set, P=0.036, Jonckheere-Terpstra trend test): statistically significant dose response trend
nasal influenza shedding by qRT-PCR compared with cell culture results [5]: similar
rates of seroconversion versus placebo [6]: no difference
median duration of influenza-like symptoms versus placebo ([7]; P<0.001): statistically significant reduction
median duration of composite clinical symptoms versus placebo ([7]; P=0.001): statistically significant reduction
median AUC of influenza-like symptoms versus placebo ([7]; P=0.040): statistically significant reduction
